Test results as given in the supplement of paper PMC3334620.
Over roughly 33,000 sequences, “E-score (-0.5 to 0.5)” has its median near -0.0034; the highest 2% begin near 0.25. The list shows a part of the results.

What follows are sequences tested against T1, Yap3 (UniProt P38749) (assay: PBM E-score (8-mer binding enrichment) (E-score (-0.5 to 0.5)); higher = stronger / more preferred TF binding). Conditions: protein concentration: 100 nM; construct: GST-full length.
T1 sequence: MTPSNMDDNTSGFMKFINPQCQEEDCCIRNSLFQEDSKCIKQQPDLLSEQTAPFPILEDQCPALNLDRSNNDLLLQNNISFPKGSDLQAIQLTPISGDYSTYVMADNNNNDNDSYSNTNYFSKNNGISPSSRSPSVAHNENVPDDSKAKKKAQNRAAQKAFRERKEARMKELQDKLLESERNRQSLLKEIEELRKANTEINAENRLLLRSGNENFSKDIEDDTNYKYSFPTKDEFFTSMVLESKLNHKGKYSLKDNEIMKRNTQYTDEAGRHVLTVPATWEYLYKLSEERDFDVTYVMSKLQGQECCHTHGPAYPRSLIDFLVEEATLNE
Description: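 Universal 'all 10-mer' protein binding microarrays (Agilent AMADID 015681) probed with GST-tagged S. cerevisiae TFs (full-length or DBD) made by in vitro transcription/translation (PURExpress), about 100-200 nM. Bound TF was detected with fluorescent anti-GST. Each ungapped 8-mer (which stands for itself and its reverse complement) is scored by the PBM enrichment score (E-score), a modified Wilcoxon-Mann-Whitney statistic from -0.5 to +0.5, computed with the Universal PBM Analysis Suite. Scale: above 0.35 generally sequence-specific binding.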
In the case of AAGGACGT, the “PBM E-score” value is reported as 0.077.
With TATGGGGA the “PBM E-score” value was 0.143.
With ACAGCTCG the “PBM E-score” value was -0.175.
GACCTTCA was tested, and the “PBM E-score” value was -0.095.
In the case of ATTAAACG, the “PBM E-score” value is reported as 0.215.
With CGACTGCC the “PBM E-score” value was -0.0679.
For ACAGGCGA, the “PBM E-score” value was -0.197.
CTAGTAAA was tested, and the “PBM E-score” value was 0.0933.
In the case of CCCACACC, the “PBM E-score” value is reported as 0.0489.
TCCTGGAA was tested, and the “PBM E-score” value was -0.193.
In the case of ACTACTCC, the “PBM E-score” value is reported as -0.147.
With GATGTATA the “PBM E-score” value was 0.0115.
In the case of CGAGCTGA, the “PBM E-score” value is reported as 0.081.
AGCAGCAT was tested, and the “PBM E-score” value was -0.0372.
For AGGTGACC, the “PBM E-score” value was -0.307.
For GGTGTTCA, the “PBM E-score” value was -0.0114.
With ACACCAAG the “PBM E-score” value was 0.0296.
In the case of CTGACGGA, the “PBM E-score” value is reported as -0.00761.
AATCGAGC was tested, and the “PBM E-score” value was 0.00828.
With CACGGCGA the “PBM E-score” value was -0.121.
For CCTTCACA, the “PBM E-score” value was 0.0677.
For ACCGACGC, the “PBM E-score” value was -0.185.
AACTTCTG was tested, and the “PBM E-score” value was 0.0514.
CCGCGTAC was tested, and the “PBM E-score” value was -0.0388.
In the case of CCAAGGGA, the “PBM E-score” value is reported as -0.138.
For GCTAAGGA, the “PBM E-score” value was -0.115.
With ACCCGCCG the “PBM E-score” value was 0.127.
In the case of ACAGGACA, the “PBM E-score” value is reported as -0.0394.
For CGCACTGA, the “PBM E-score” value was -0.0906.
In the case of AGGCATTG, the “PBM E-score” value is reported as 0.0156.
For GGACACTA, the “PBM E-score” value was -0.0643.
In the case of ACACCCAA, the “PBM E-score” value is reported as 0.0757.
In the case of AGTATCGA, the “PBM E-score” value is reported as 0.24.
For CGACAGCG, the “PBM E-score” value was -0.199.
For TACGAATA, the “PBM E-score” value was 0.183.
With ACCTGTTA the “PBM E-score” value was -0.0588.
With CTCACCGA the “PBM E-score” value was -0.115.
With GTACCTAC the “PBM E-score” value was -0.0495.
With ACTTTTGC the “PBM E-score” value was 0.106.
For AAGTTGCT, the “PBM E-score” value was -0.127.
CTAGCGTA was tested, and the “PBM E-score” value was -0.179.
For AGACTAGC, the “PBM E-score” value was -0.245.
For CCTCCATA, the “PBM E-score” value was -0.156.
For ATAGCCGG, the “PBM E-score” value was -0.123.
For CTACACAA, the “PBM E-score” value was 0.183.
In the case of GGCACCCA, the “PBM E-score” value is reported as -0.257.
CCTAACTA was tested, and the “PBM E-score” value was 0.0805.
In the case of CGCTCCCA, the “PBM E-score” value is reported as -0.0586.
With GACAGGGA the “PBM E-score” value was -0.0649.
For CGAGTTAG, the “PBM E-score” value was 0.124.
With CCCGTAGG the “PBM E-score” value was -0.203.
With AAAGCGTT the “PBM E-score” value was 0.0759.
ACACTTAG was tested, and the “PBM E-score” value was 0.0439.
GCAGTGGA was tested, and the “PBM E-score” value was 0.119.
In the case of GATTACGA, the “PBM E-score” value is reported as 0.291.
AGCGGGAC was tested, and the “PBM E-score” value was -0.231.
For GAAAGCAC, the “PBM E-score” value was 0.112.
ATGAATCG was tested, and the “PBM E-score” value was 0.0879.
AAGGCTAA was tested, and the “PBM E-score” value was 0.0588.
In the case of GACTGCCC, the “PBM E-score” value is reported as -0.225.
With GATGGAGC the “PBM E-score” value was -0.108.
In the case of GCATAACC, the “PBM E-score” value is reported as -0.0827.
With ATACCCGG the “PBM E-score” value was -0.151.
CACTGGGG was tested, and the “PBM E-score” value was -0.286.
In the case of CAGACAAA, the “PBM E-score” value is reported as 0.126.
ATGGAAAC was tested, and the “PBM E-score” value was 0.0456.
For GTTTGTAA, the “PBM E-score” value was 0.0859.
With CCCAGATC the “PBM E-score” value was -0.231.
ACATTCTG was tested, and the “PBM E-score” value was -0.0885.
For CAAGAGTC, the “PBM E-score” value was -0.0614.
With AACCGCCC the “PBM E-score” value was -0.184.
In the case of CACAATGC, the “PBM E-score” value is reported as 0.0947.
With CCTGCAGA the “PBM E-score” value was 0.0188.
For GCGTCGTA, the “PBM E-score” value was 0.068.
With AACTATCG the “PBM E-score” value was -0.00863.
For GCGAGATA, the “PBM E-score” value was 0.187.
For CTATGACC, the “PBM E-score” value was -0.0341.
For TCGGACCA, the “PBM E-score” value was -0.0438.
For ACGAGAGC, the “PBM E-score” value was -0.201.
With ACTAGCTA the “PBM E-score” value was 0.00272.
AGGGCTAA was tested, and the “PBM E-score” value was 0.0284.
For CACGGCTA, the “PBM E-score” value was -0.102.
For CTGGCCTA, the “PBM E-score” value was -0.12.
With GAGCAACA the “PBM E-score” value was -0.151.
CGATCAAG was tested, and the “PBM E-score” value was -0.0493.
With AGTTACTA the “PBM E-score” value was 0.19.
